No constants are given. Whether binding was seen depends on the method and setting. Binding can be weak; no strength is given. For part of these data: In cells and extracts the contact can be indirect. For part of these data: Where a sequence is shown, tags or fusion partners need not be part of it. Each block holds one binder with its values, some of them ahead of it.
Experiments:
[1] = target: SlEIL3 in pGBKT7 (pGBKT7-EIL3) (tomato (Solanum lycopersicum)); experiment: two-hybrid
[2] = target: EIL3-GFP (tomato (Solanum lycopersicum)); experiment: co-IP
[3] = target: cLUC-SlEIL3 (tomato (Solanum lycopersicum)); experiment: split reporter

binding [1]: binds
B1: SlNAP2 in pGADT7 (pGADT7-NAP2) (protein, UniProt K4BNG7 1-275)
chain: MVGKNNSNHLPPGFRFHPTDEELIMYYLRNQATSKPCPSSIIPEVDVYKFDPWELPEKTEFGEKEWYFFTPRDRKYPNGVRPNRAAVSGYWKATGTDKGIYSGTKYVGIKKALVFYKGKPPKGIKTDWIMHEYRLSESRTQPTRPNGSMRLDDWVLCRIYKKKNLERAIEMMKVEEDTQEPQIMSVTNPIHEVVASNGQQTLKLPRTCSLSHLLEMDYFGSISQLFDDNNSYNTISQNNTLMTNVNGYVMPHQAMEKFQLGEVSQISMNPSYQFQ

binding [2]: binds
B2: NAP2-HA (protein, UniProt K4BNG7 1-275)
chain: MVGKNNSNHLPPGFRFHPTDEELIMYYLRNQATSKPCPSSIIPEVDVYKFDPWELPEKTEFGEKEWYFFTPRDRKYPNGVRPNRAAVSGYWKATGTDKGIYSGTKYVGIKKALVFYKGKPPKGIKTDWIMHEYRLSESRTQPTRPNGSMRLDDWVLCRIYKKKNLERAIEMMKVEEDTQEPQIMSVTNPIHEVVASNGQQTLKLPRTCSLSHLLEMDYFGSISQLFDDNNSYNTISQNNTLMTNVNGYVMPHQAMEKFQLGEVSQISMNPSYQFQ

binding [3]: binds
B3: SlNAP2-nLUC (protein, UniProt K4BNG7 1-275)
chain: MVGKNNSNHLPPGFRFHPTDEELIMYYLRNQATSKPCPSSIIPEVDVYKFDPWELPEKTEFGEKEWYFFTPRDRKYPNGVRPNRAAVSGYWKATGTDKGIYSGTKYVGIKKALVFYKGKPPKGIKTDWIMHEYRLSESRTQPTRPNGSMRLDDWVLCRIYKKKNLERAIEMMKVEEDTQEPQIMSVTNPIHEVVASNGQQTLKLPRTCSLSHLLEMDYFGSISQLFDDNNSYNTISQNNTLMTNVNGYVMPHQAMEKFQLGEVSQISMNPSYQFQ

Source: doi:10.1101/2024.07.15.603576
